Measurements reported in the supplement of paper PMC10849652.
The list shows a part of the results.

Chains of the proteins cited; added tags and fusions are not shown. Lines headed by an entry give the natural chain unless they say otherwise; changes in a name come on top.
UniProt Q567U6, whole entry, looked up: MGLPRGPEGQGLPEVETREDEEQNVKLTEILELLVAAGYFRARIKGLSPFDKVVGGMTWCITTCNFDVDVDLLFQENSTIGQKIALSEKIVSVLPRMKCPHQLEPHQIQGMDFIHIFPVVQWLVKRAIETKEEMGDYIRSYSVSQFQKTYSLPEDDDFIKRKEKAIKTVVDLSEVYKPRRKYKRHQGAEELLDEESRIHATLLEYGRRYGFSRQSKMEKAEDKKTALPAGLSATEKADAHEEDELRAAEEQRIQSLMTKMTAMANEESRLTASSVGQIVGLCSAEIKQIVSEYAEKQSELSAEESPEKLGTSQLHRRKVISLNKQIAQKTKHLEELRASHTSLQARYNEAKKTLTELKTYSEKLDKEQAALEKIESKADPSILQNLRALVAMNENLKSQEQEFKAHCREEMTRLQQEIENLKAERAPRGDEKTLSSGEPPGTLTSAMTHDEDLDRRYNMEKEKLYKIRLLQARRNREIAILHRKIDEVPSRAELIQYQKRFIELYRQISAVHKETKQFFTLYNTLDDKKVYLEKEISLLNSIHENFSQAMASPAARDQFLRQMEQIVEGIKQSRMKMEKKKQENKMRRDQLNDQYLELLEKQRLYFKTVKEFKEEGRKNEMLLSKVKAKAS
UniProt O15446, whole entry, looked up: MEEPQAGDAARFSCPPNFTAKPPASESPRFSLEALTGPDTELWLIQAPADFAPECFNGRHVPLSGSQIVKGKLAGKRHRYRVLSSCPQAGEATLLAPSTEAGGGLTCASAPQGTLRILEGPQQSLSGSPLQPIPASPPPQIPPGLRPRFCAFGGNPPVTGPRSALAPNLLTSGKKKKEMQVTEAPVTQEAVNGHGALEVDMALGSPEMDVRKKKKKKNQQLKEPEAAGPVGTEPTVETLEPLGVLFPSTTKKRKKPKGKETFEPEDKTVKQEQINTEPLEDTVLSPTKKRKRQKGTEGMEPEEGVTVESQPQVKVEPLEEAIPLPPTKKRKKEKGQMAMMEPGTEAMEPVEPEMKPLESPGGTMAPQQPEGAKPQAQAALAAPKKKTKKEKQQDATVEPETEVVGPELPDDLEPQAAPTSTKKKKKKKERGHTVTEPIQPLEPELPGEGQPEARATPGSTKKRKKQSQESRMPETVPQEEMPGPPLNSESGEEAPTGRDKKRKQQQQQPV
UniProt O95067, whole entry, looked up: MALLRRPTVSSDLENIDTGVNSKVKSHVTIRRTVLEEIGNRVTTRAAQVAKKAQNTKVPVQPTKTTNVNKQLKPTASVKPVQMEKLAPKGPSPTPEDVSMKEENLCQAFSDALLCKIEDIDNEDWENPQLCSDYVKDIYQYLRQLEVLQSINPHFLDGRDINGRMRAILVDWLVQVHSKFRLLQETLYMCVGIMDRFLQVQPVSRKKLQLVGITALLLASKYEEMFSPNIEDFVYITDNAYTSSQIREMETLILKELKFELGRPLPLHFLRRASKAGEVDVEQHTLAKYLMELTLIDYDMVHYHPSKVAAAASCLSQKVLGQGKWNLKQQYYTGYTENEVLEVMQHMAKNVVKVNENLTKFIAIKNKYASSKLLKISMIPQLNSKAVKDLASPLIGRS
UniProt O95810: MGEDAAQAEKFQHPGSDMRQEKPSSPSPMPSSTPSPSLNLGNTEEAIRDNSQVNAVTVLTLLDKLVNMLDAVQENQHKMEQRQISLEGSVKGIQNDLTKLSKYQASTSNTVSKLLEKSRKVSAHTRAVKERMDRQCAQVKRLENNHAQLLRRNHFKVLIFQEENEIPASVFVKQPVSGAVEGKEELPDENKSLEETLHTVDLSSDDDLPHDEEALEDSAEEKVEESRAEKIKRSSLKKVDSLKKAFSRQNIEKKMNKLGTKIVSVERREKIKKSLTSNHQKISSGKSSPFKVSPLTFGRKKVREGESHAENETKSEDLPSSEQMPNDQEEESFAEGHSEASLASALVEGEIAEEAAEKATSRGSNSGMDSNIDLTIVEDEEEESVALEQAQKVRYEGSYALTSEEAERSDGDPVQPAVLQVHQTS
UniProt Q6PII3: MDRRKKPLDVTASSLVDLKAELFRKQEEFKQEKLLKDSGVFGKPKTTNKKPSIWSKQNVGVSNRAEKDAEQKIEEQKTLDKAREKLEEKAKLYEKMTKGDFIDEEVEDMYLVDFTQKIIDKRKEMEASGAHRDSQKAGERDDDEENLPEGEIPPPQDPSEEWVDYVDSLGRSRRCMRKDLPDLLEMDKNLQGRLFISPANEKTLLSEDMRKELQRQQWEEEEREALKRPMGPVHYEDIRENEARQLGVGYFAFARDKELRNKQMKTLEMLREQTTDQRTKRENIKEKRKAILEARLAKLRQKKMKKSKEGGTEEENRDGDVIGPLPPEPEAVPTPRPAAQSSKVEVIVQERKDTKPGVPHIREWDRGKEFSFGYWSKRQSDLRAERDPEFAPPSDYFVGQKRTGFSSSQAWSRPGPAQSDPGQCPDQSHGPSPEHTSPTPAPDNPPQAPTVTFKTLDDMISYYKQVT
UniProt O60508: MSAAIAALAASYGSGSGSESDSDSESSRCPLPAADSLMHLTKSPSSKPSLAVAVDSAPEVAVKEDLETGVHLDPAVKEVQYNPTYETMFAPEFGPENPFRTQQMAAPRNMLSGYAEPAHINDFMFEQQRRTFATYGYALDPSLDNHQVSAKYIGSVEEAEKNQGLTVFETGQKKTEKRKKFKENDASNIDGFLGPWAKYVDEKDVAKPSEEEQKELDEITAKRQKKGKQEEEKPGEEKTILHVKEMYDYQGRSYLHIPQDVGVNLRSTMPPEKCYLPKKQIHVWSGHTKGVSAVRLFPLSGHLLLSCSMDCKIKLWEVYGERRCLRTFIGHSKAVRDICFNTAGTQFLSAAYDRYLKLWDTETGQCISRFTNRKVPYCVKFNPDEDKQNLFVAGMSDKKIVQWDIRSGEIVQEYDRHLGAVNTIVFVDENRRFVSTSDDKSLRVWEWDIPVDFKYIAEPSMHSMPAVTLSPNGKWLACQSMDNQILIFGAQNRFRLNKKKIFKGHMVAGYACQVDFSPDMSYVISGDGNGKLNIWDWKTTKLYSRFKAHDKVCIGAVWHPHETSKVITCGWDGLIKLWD
UniProt P30260, whole entry, looked up: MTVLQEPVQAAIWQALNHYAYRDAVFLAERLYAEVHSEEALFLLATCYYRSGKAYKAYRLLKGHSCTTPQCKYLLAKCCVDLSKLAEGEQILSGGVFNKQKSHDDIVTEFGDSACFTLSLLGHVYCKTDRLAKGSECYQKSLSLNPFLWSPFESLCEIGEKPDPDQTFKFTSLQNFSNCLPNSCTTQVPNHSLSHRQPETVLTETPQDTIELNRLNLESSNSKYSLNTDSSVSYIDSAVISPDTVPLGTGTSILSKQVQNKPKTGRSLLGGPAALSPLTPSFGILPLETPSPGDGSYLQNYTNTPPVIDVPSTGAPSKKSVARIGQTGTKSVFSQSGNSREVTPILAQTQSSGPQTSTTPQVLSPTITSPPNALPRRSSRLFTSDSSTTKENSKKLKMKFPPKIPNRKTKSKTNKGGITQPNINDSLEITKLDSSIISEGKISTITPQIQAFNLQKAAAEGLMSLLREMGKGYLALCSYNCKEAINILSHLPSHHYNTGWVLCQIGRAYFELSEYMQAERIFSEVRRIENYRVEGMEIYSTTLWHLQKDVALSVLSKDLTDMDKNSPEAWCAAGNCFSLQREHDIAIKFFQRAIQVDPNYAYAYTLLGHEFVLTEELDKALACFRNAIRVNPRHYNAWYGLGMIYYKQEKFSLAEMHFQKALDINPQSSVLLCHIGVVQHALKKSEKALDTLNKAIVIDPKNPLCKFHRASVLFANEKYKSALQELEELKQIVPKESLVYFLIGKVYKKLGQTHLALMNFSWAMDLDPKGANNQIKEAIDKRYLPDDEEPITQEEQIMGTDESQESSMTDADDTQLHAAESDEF
UniProt P04040: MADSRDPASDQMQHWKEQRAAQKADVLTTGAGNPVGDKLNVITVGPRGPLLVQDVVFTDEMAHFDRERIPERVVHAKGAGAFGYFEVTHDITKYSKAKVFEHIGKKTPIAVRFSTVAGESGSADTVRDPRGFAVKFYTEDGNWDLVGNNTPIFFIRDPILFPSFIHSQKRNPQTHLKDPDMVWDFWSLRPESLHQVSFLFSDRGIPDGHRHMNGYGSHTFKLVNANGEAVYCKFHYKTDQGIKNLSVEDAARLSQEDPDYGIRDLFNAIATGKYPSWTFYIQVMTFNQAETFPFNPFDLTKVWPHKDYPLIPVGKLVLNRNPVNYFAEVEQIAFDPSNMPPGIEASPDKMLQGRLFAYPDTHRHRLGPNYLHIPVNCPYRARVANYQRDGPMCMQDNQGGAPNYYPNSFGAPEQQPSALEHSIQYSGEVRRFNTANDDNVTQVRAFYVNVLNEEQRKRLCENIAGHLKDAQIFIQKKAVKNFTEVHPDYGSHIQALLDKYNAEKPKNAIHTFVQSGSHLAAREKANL
UniProt P48960: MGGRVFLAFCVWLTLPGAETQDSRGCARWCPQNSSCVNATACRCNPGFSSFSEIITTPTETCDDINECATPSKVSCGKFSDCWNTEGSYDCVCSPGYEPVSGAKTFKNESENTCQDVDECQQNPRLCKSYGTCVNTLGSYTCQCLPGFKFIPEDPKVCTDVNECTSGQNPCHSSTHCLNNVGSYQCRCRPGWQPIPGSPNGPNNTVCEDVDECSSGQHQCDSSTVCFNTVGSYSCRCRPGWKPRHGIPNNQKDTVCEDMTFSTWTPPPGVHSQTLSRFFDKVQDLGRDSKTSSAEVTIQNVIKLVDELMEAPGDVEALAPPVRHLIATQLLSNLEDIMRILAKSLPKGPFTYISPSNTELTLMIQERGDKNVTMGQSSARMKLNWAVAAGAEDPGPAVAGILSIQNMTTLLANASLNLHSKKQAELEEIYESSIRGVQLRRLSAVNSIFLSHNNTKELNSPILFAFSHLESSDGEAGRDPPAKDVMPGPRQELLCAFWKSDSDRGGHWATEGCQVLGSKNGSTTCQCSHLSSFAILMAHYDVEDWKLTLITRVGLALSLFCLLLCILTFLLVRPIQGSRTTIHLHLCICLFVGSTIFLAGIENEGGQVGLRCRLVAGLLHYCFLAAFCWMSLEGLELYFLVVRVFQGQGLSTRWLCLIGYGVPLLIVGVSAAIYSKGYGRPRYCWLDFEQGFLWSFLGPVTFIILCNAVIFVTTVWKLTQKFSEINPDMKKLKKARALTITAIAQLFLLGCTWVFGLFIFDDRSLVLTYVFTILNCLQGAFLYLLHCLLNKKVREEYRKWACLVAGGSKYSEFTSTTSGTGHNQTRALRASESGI
UniProt Q96ER9: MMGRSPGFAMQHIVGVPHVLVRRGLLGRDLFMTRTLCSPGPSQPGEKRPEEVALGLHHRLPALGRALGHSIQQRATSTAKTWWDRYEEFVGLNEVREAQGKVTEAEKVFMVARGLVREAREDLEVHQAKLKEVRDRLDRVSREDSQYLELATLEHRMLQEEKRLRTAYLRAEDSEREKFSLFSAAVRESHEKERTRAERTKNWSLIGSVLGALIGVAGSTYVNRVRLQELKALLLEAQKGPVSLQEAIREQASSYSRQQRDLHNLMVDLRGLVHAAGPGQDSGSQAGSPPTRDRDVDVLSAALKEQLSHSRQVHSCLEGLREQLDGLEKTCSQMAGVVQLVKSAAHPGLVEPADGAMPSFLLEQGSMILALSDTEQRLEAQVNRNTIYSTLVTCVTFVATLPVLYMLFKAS
UniProt Q9ULG6: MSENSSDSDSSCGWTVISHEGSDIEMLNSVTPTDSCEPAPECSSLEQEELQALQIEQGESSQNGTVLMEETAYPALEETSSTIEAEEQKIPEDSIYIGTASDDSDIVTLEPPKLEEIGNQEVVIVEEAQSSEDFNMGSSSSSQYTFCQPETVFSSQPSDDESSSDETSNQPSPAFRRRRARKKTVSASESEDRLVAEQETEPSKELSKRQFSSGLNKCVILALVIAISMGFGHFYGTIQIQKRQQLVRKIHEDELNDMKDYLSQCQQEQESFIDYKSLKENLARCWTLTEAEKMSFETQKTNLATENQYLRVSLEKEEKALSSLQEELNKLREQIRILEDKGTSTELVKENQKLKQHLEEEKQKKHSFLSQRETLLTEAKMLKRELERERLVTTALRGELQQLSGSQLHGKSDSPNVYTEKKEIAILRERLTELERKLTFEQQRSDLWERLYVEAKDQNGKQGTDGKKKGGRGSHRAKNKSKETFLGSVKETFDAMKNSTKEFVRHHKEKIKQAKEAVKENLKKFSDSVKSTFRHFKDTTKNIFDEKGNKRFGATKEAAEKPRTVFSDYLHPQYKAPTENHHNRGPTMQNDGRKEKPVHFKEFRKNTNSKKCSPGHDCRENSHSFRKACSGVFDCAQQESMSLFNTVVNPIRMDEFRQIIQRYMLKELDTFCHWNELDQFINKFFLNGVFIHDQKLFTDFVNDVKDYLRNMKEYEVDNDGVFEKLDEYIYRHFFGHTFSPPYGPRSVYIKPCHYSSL

Assays:
Experiment in all cases: log2 fold change, soluble protein after heating vs DMSO (PISA); higher = thermal stabilisation; K562 cells, 10 uM, 30 min; active = over 0.2 and 3.5 SD of the protein, either way, in both replicates (recomputed)
[1] = compound: CC[C@@H]1C(=O)N(C)c2cnc(Nc3ccc(C(=O)NC4CCN(C)CC4)cc3OC)nc2N1C1CCCC1
In short: (§1)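 Aliquots of K562 cells (2×10^6 cells/mL) treated with 10 μM compound for 30 min were heated for 3 min over 48°C-58°C. After pooling and extraction in PBS with 0.5% NP-40 at 4°C, soluble protein from a 21,000xg, 90 min spin was quantified by TMTpro 16plex LC-MS/MS with channel sums equalised. Thermal stability is expressed against control samples, from duplicates, as a log2 fold change.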

volasertib = compound: CC[C@@H]1C(=O)N(C)c2cnc(Nc3ccc(C(=O)N[C@H]4CC[C@H](N5CCN(CC6CC6)CC5)CC4)cc3OC)nc2N1C(C)C [volasertib]
In short: as §1

[2] = compound: CC[C@H](C)N1C=C(C2=C(C=C(C=C21)C3=CN=C(C=C3)N4CCNCC4)C(=O)NCC5=C(C=C(NC5=O)C)C)C
In short: as §1

epoxomicin = compound: CC[C@H](C)[C@@H](C(=O)N[C@@H]([C@@H](C)O)C(=O)N[C@@H](CC(C)C)C(=O)[C@]1(CO1)C)NC(=O)[C@H]([C@@H](C)CC)N(C)C(=O)C [epoxomicin]
In short: as §1

[3] = compound: CCn1c(C(=O)N(C2CC2)C2CC2)cc2c3c(ncn3C)c(Nc3cc(C)n(C)n3)nc21
In short: as §1

[4] = compound: CCn1cc(-c2ccnc3[nH]c(-c4cccc(CN(C)C)c4)cc23)c(-c2ccc(NC(=O)N(C)C)cc2)n1
In short: as §1

[5] = compound: CN(C)CC(=O)Nc1ccc2[nH]c(=O)c3ccccc3c2c1
In short: as §1

rosiglitazone = compound: CN(CCOC1=CC=C(C=C1)C[C@H]2C(=O)NC(=O)S2)C3=CC=CC=N3 (racemic) [rosiglitazone]
In short: as §1

[6] = compound: CN1C2=C(C3=C1C(=O)N(N=C3)CC4=CC(=CC=C4)N)SC(=C2)S(=O)C
In short: as §1

[7] = compound: CN1CCC(CNc2ccc3ncc(-c4cccc(OC(F)(F)F)c4)n3n2)CC1
In short: as §1

saracatinib = compound: CN1CCN(CCOc2cc(OC3CCOCC3)c3c(Nc4c(Cl)ccc5c4OCO5)ncnc3c2)CC1 [saracatinib]
In short: as §1

sotrastaurin = compound: CN1CCN(c2nc(C3=C(c4c[nH]c5ccccc45)C(=O)NC3=O)c3ccccc3n2)CC1 [sotrastaurin]
In short: as §1

alvocidib = compound: CN1CC[C@H](c2c(O)cc(O)c3c(=O)cc(-c4ccccc4Cl)oc23)[C@H](O)C1 [alvocidib]
In short: as §1

Tubastatin A = compound: CN1CCc2c(c3ccccc3n2Cc2ccc(C(=O)NO)cc2)C1 [Tubastatin A]
In short: as §1

[8] = compound: CNC(=O)C1=CC=CC=C1NC2=NC(=NC=C2Cl)NC3=C(C=C(C=C3)N4CCOCC4)OC
In short: as §1

defactinib = compound: CNC(=O)c1ccc(Nc2ncc(C(F)(F)F)c(NCc3nccnc3N(C)S(C)(=O)=O)n2)cc1 [defactinib]
In short: as §1

rucaparib = compound: CNCc1ccc(-c2[nH]c3cc(F)cc4c3c2CCNC4=O)cc1 [rucaparib]
In short: as §1

[9] = compound: CNc1nc(-c2ccc3c(N)n[nH]c3c2)cc(N2C[C@@H](C(=O)NC3CCCCC3)CC[C@H]2C)n1
In short: as §1

encorafenib = compound: COC(=O)N[C@@H](C)CNc1nccc(-c2cn(C(C)C)nc2-c2cc(Cl)cc(NS(C)(=O)=O)c2F)n1 [encorafenib]
In short: as §1

[10] = compound: COC(=O)[C@H](CCSC)NC(=O)C1=C(C=C(C=C1)NC[C@H](CS)N)C2=CC=CC=C2
In short: as §1

Measured: log2 fold change

CCDC93 (UniProt Q567U6)
inactive: [1] -0.072 | volasertib -0.138 | [2] 0.108 | epoxomicin -0.01 | [3] -0.041 | [4] 0.002 | [5] -0.03 | rosiglitazone 0.037 | [6] 0.008 | [7] -0.126 | saracatinib -0.068 | sotrastaurin -0.064 | alvocidib 0.005 | Tubastatin A 0.045 | [8] -0.034 | defactinib 0.001 | rucaparib 0.074 | [9] 0.097 | encorafenib -0.004 | [10] 0.026

CD3EAP isoform 2 (UniProt O15446)
inactive: [1] 0.179 | volasertib 0.147 | [2] 0.022 | epoxomicin -0.164 | [3] 0.004 | [4] 0.124 | [5] -0.107 | rosiglitazone -0.093 | [6] 0.129 | [7] 0.062 | saracatinib -0.003 | sotrastaurin 0 | alvocidib 0.094 | Tubastatin A -0.044 | [8] 0.024 | defactinib 0.148 | rucaparib 0.183 | [9] -0.01 | encorafenib 0.062 | [10] 0.089

CCNB2 (UniProt O95067)
inactive: [1] 0.037 | volasertib 0.112 | [2] -0.004 | epoxomicin 0.02 | [3] -0.033 | [4] -0.107 | [5] 0.026 | rosiglitazone 0.085 | [6] -0.057 | [7] -0.171 | saracatinib 0.008 | sotrastaurin -0.131 | alvocidib -0.05 | Tubastatin A 0.087 | [8] 0.014 | defactinib -0.113 | rucaparib -0.056 | [9] 0.008 | encorafenib -0.051 | [10] -0.022

CCDC88A (UniProt Q3V6T2)
inactive: [1] 0.077 | volasertib -0.218 | [2] -0.217 | epoxomicin -0.117 | [3] -0.085 | [4] 0.067 | [5] 0.111 | rosiglitazone 0.124 | [6] 0.122 | [7] -0.114 | saracatinib -0.222 | sotrastaurin 0.112 | alvocidib -0.073 | Tubastatin A 0.094 | [8] 0.032 | defactinib -0.105 | rucaparib -0.135 | [9] 0.017 | encorafenib 0.033 | [10] -0.072

CAVIN2 (UniProt O95810)
inactive: [1] -0.004 | volasertib 0.104 | [2] -0.011 | epoxomicin -0.061 | [3] 0.066 | [4] 0.089 | [5] -0.067 | rosiglitazone -0.06 | [6] 0.112 | [7] -0.016 | saracatinib -0.034 | sotrastaurin -0.037 | alvocidib 0.059 | Tubastatin A 0.044 | [8] -0.037 | defactinib 0.158 | rucaparib 0.064 | [9] 0.08 | encorafenib 0.071 | [10] -0.01

CCNA2 (UniProt P20248)
inactive: [1] 0.034 | volasertib 0.043 | [2] -0.007 | epoxomicin 0.024 | [3] 0.022 | [4] -0.067 | [5] -0.004 | rosiglitazone 0.004 | [6] -0.041 | [7] 0.024 | saracatinib 0.073 | sotrastaurin -0.013 | alvocidib -0.003 | Tubastatin A 0 | [8] -0.085 | defactinib -0.059 | rucaparib -0.056 | [9] -0.009 | encorafenib 0.024 | [10] 0.019

CCDC174 (UniProt Q6PII3)
inactive: [1] -0.02 | volasertib 0.036 | [2] 0.006 | epoxomicin -0.012 | [3] 0.003 | [4] -0.008 | [5] -0.022 | rosiglitazone -0.033 | [6] -0.003 | [7] -0.033 | saracatinib 0.017 | sotrastaurin 0.065 | alvocidib 0.025 | Tubastatin A 0.072 | [8] -0.013 | defactinib -0.038 | rucaparib 0.06 | [9] 0.011 | encorafenib -0.035 | [10] 0.033

CDC40 (UniProt O60508)
inactive: [1] 0.275 | volasertib 0.251 | [2] 0.044 | epoxomicin -0.25 | [3] -0.057 | [4] 0.124 | [5] -0.09 | rosiglitazone -0.148 | [6] 0.229 | [7] 0.289 | saracatinib -0.01 | sotrastaurin -0.054 | alvocidib 0.667 | Tubastatin A 0.016 | [8] -0.123 | defactinib 0.547 | rucaparib 0.31 | [9] -0.047 | encorafenib -0.068 | [10] -0.048

CARS2 (UniProt Q9HA77)
inactive: [1] 0.016 | volasertib -0.017 | [2] -0.053 | epoxomicin -0.03 | [3] 0.009 | [4] -0.036 | [5] -0.022 | rosiglitazone 0.048 | [6] -0.019 | [7] 0.035 | saracatinib 0.037 | sotrastaurin 0.065 | alvocidib -0.026 | Tubastatin A -0.024 | [8] -0.022 | defactinib -0.01 | rucaparib 0.056 | [9] 0.022 | encorafenib 0.027 | [10] 0.017

CDC27 isoform 2 (UniProt P30260)
inactive: [1] -0.013 | volasertib -0.053 | [2] 0.033 | epoxomicin -0.007 | [3] 0.015 | [4] 0.014 | [5] -0.019 | rosiglitazone 0.013 | [6] -0.005 | [7] 0.014 | saracatinib -0.038 | sotrastaurin -0.03 | alvocidib -0.006 | Tubastatin A 0.034 | [8] 0.035 | defactinib -0.014 | rucaparib 0.019 | [9] 0.025 | encorafenib 0.065 | [10] -0.005

CAT (UniProt P04040)
inactive: [1] -0.013 | volasertib 0.04 | [2] -0.039 | epoxomicin -0.028 | [3] -0.006 | [4] -0.018 | [5] 0.001 | rosiglitazone -0.007 | [6] 0.033 | [7] 0.01 | saracatinib -0.001 | sotrastaurin 0.043 | alvocidib 0.005 | Tubastatin A -0.004 | [8] -0.046 | defactinib -0.015 | rucaparib -0.037 | [9] -0.022 | encorafenib -0.037 | [10] 0.014

CD97 (UniProt P48960)
inactive: [1] -0.001 | volasertib 0.074 | [2] 0.008 | epoxomicin -0.006 | [3] -0.003 | [4] -0.05 | [5] 0.022 | rosiglitazone -0.047 | [6] 0.04 | [7] -0.172 | saracatinib -0.03 | sotrastaurin 0.066 | alvocidib 0.008 | Tubastatin A 0.031 | [8] -0.079 | defactinib -0.108 | rucaparib 0.011 | [9] -0.047 | encorafenib -0.043 | [10] 0.018

CCDC50 (UniProt Q8IVM0)
inactive: [1] 0.019 | volasertib 0.122 | [2] -0.041 | epoxomicin 0.027 | [3] 0.04 | [4] 0.06 | [5] -0.037 | rosiglitazone 0.067 | [6] -0.023 | [7] -0.011 | saracatinib -0.026 | sotrastaurin 0.071 | alvocidib 0.023 | Tubastatin A -0.011 | [8] -0.02 | defactinib 0.036 | rucaparib -0.031 | [9] -0.03 | encorafenib -0.024 | [10] 0.018

Three neighbouring records out of the list so far:
CDC27 isoform 2 (UniProt P30260)
inactive: [1] -0.013 | volasertib -0.053 | [2] 0.033 | epoxomicin -0.007 | [3] 0.015 | [4] 0.014 | [5] -0.019 | rosiglitazone 0.013 | [6] -0.005 | [7] 0.014 | saracatinib -0.038 | sotrastaurin -0.03 | alvocidib -0.006 | Tubastatin A 0.034 | [8] 0.035 | defactinib -0.014 | rucaparib 0.019 | [9] 0.025 | encorafenib 0.065 | [10] -0.005

CAT (UniProt P04040)
inactive: [1] -0.013 | volasertib 0.04 | [2] -0.039 | epoxomicin -0.028 | [3] -0.006 | [4] -0.018 | [5] 0.001 | rosiglitazone -0.007 | [6] 0.033 | [7] 0.01 | saracatinib -0.001 | sotrastaurin 0.043 | alvocidib 0.005 | Tubastatin A -0.004 | [8] -0.046 | defactinib -0.015 | rucaparib -0.037 | [9] -0.022 | encorafenib -0.037 | [10] 0.014

CD97 (UniProt P48960)
inactive: [1] -0.001 | volasertib 0.074 | [2] 0.008 | epoxomicin -0.006 | [3] -0.003 | [4] -0.05 | [5] 0.022 | rosiglitazone -0.047 | [6] 0.04 | [7] -0.172 | saracatinib -0.03 | sotrastaurin 0.066 | alvocidib 0.008 | Tubastatin A 0.031 | [8] -0.079 | defactinib -0.108 | rucaparib 0.011 | [9] -0.047 | encorafenib -0.043 | [10] 0.018

(further entries)

CDC23 (UniProt Q9UJX2)
inactive: [1] -0.014 | volasertib -0.074 | [2] 0.022 | epoxomicin -0.009 | [3] 0.031 | [4] 0.039 | [5] 0.001 | rosiglitazone -0.047 | [6] -0.004 | [7] 0.029 | saracatinib -0.012 | sotrastaurin 0.01 | alvocidib 0.004 | Tubastatin A 0.11 | [8] 0.054 | defactinib -0.029 | rucaparib 0.049 | [9] -0.016 | encorafenib 0.028 | [10] -0.025

CCDC51 (UniProt Q96ER9)
inactive: [1] -0.064 | volasertib -0.028 | [2] 0.006 | epoxomicin 0.097 | [3] 0.039 | [4] -0.029 | [5] -0.003 | rosiglitazone -0.006 | [6] -0.115 | [7] -0.101 | saracatinib 0.049 | sotrastaurin -0.079 | alvocidib -0.069 | Tubastatin A -0.02 | [8] 0.082 | defactinib -0.06 | rucaparib -0.011 | [9] -0.018 | encorafenib -0.008 | [10] -0.001

CCPG1 isoform 5 (UniProt Q9ULG6)
inactive: [1] 0.016 | volasertib -0.041 | [2] 0.01 | epoxomicin 0.048 | [3] 0.008 | [4] 0.021 | [5] -0.049 | rosiglitazone -0.021 | [6] 0.142 | [7] 0.103 | saracatinib -0.124 | sotrastaurin -0.07 | alvocidib 0.109 | Tubastatin A 0.193 | [8] -0.045 | defactinib 0.1 | rucaparib 0.042 | [9] -0.049 | encorafenib 0.103 | [10] -0.001
